Assay results: paper PMC9135340
Results are given in words; binding and its absence hold for the method and conditions named. In cells and extracts the contact can be indirect. Some binding calls cover weakened binding; strength is not graded here.

The chains behind the UniProt entries cited, without tags or fusion partners.
UniProt Q2GI62: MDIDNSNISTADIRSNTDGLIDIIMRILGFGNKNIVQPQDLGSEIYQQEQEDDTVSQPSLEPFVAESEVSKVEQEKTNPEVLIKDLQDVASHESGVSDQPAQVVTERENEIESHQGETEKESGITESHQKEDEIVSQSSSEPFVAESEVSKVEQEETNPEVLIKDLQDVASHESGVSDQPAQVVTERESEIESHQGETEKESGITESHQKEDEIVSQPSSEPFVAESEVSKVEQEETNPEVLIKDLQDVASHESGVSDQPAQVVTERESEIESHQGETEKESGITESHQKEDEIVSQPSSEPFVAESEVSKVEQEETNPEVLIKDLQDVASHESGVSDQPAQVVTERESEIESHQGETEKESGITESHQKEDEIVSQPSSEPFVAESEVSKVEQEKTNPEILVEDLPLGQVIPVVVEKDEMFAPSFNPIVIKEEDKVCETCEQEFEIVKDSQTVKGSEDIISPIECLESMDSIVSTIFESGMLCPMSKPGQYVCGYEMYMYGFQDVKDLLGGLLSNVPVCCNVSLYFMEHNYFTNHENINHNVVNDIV

Biological target: T1, Patched-2 (PTCH2), endogenous in THP-1 cells (human (endogenous in THP-1)) (UniProt Q9Y6C5)
T1 sequence: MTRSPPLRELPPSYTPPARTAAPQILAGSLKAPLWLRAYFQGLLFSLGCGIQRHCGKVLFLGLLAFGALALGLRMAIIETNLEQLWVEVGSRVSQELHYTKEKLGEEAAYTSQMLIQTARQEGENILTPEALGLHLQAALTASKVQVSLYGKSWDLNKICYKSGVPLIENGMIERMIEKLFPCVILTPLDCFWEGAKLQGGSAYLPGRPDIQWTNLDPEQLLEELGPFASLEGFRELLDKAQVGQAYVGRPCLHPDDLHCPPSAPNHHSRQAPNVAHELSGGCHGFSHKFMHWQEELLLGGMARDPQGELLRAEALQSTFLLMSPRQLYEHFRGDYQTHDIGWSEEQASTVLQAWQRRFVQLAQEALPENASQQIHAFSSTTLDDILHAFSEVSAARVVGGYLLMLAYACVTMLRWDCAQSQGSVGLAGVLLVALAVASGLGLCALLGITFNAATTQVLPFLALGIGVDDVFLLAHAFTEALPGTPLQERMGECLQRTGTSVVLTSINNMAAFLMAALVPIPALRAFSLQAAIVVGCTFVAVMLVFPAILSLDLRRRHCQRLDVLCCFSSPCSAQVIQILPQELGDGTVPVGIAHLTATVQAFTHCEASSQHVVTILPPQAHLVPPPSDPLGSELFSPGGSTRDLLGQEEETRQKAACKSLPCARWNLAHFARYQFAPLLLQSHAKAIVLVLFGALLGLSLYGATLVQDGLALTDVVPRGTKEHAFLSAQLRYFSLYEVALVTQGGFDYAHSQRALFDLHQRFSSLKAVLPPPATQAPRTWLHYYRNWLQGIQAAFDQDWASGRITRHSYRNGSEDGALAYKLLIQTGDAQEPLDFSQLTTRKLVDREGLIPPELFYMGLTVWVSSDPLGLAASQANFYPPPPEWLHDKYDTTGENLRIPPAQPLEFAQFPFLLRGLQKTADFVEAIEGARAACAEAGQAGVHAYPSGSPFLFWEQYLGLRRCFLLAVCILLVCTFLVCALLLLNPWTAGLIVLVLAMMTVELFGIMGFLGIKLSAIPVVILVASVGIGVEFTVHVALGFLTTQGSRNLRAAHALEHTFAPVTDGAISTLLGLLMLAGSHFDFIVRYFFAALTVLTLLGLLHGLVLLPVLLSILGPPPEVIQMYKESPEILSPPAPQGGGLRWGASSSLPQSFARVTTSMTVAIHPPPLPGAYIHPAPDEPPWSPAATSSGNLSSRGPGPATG
Test: co-IP; Pierce Crosslink IP Kit; lysate of THP-1 cells infected with E. chaffeensis (MOI 100, 24 h); IP with TRP120-I1 or PTCH2 antibody (reverse), blot for TRP120 or PTCH2; normal rabbit IgG as control

Substance: E. chaffeensis TRP120 (native, in infected THP-1 cells) (from UniProt Q2GI62 1-548)
- binding: binds
